Data source: PubChem BioAssay AID1259308 (NCATS, 2017)
This is one part, drawn at random, of about 59,000 reagents. Over the whole deposit, about 1,510 (2.6%) got an active call. 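Calls use total luciferase alone and ignore viability, so some active siRNAs may act by altering cell number.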 A number with no mark means an inactive call. The numbers tell different reagents against one gene apart. Further read-outs or replicates are left out here.

Assay: 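Candidate targets for better recombinant protein yield in mammalian cells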 (primary screen)
Cells: human HEK293 embryonic kidney cells stably expressing firefly luciferase (HEK-CMV-Luc2-Hygro)
Knock-down reagent: single siRNA against human genes, 0.8 pmol siRNA per well
Duration: 72 h
Detection: 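Luciferase light (ONE-Glo) measured on one replicate plate set and viability (CellTiter-Glo) on the other, scaled to a negative control siRNA, with robust z-scores and luciferase per cell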
Reading the numbers: total luciferase, z-score: higher = more reporter protein produced
Hit rule: 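An siRNA counts as active if its total luciferase robust z-score exceeds 3; genes with two or more such siRNAs out of three were retested with fresh siRNAs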
Calls: active = raised luciferase; inactive = no rise

total luciferase, z-score, by gene and reagent
KRT12 (GeneID 3859): #1 2.75; #2 0.553; #3 -0.105
FBXW4 (GeneID 6468): #1 -1.71; #2 -2.19; #3 1.52
SERINC1 (GeneID 57515): #1 2.48; #2 -0.93; #3 -0.124
SKIC2 (GeneID 6499): #1 0.153; #2 -0.187; #3 1.91
KTI12 (GeneID 112970): #1 -0.152; #2 -1.68; #3 -0.631
SHOC1 (GeneID 158401): #1 -1.41; #2 0.369; #3 0.527
CHAC2 (GeneID 494143): #1 0.409; #2 1.97; #3 0.428
IRF1 (GeneID 3659): #1 0.68; #2 -2.38; #3 -2.12
